For at least one compound, name, drawing or mass did not settle the structure.
Experiment: Single subcutaneous dose [14C]-copper histidinate pharmacokinetic study in healthy adult male subjects
Format: in vivo, human
Settings: single SC 3.0 mg, arithmetic mean ± SD; for t1/2, serum total radioactivity: apparent terminal
Excerpt: The primary objective of this study was to quantitate total radioactivity (TRA) in whole blood, serum, and the eluted fractions of serum spiked with unlabeled copper histidinate (CuHis) from a size exclusion-high performance liquid chromatography (SEC-HPLC) column after a single subcutaneous (SC) administration of [^14C] CuHis in healthy adult male subjects. Further, the study was designed to determine the percentage of ^14C radioactivity associated with cellular components in whole blood over time (e.g., whole blood:serum partitioning concentration ratio).
To evaluate the safety and tolerability after a single SC administration of [^14C] CuHis in healthy adult male subjects. This was an open-label, single-dose, 1-period, PK study conducted at 1 study center in the USA. Six (6) healthy, adult male subjects were enrolled. Screening of subjects occurred within 28 days prior to dosing.
On Day 1, a single SC 3.0 mg (˜500 nCi) dose of [^14C]-CuHis was administered. […]
TRA CuHis concentration equivalents in whole blood and serum were determined using accelerator mass spectrometry (AMS) at Pharmaron ABS, Inc. (Germantown, Maryland, USA). The lower limits of quantitation (LLOQ) for TRA CuHis concentration equivalents in whole blood and serum ranged from 0.711 to 0.770 ng eq CuHis/mL and 0.239 to 0.284 ng eq CuHis/mL in the different subjects, respectively.
[^14C]-CuHis concentrations in serum fractions from the SEC-HPLC column were determined using AMS at Pharmaron ABS, Inc. (Germantown, Maryland, USA). […]
Whole blood: serum TRA partitioning ratios were calculated at each postdose time point for each subject as the ratio between whole blood TRA CuHis concentration equivalents and serum TRA CuHis concentration equivalents. The following parameters were calculated for whole blood and serum TRA, and serum [^14C]-CuHis, when possible: AUC0-24, AUC0-last, AUC0-∞, AUC% extrap, Cmax, tmax, tlag, Kel, and t1/2. The AUC0-24 Ratio was calculated for serum [^14C]-CuHis versus serum TRA. CL/F and Vz/F were calculated for serum [^14C]-CuHis. […]

## N[C@@H](Cc1c[nH]cn1)C(=O)O.N[C@@H](Cc1c[nH]cn1)C(=O)O.[Cu] [[^14C]-Copper Histidinate]
  t1/2, serum total radioactivity: 252.682 ± 113.8692 [n = 5]^c hr
  Vz/F, serum [14C]-copper histidinate: 1034 ± 587.82 [n = 5]^e L
Listed as [^14C]-CuHis
  t1/2, serum total radioactivity: ~253 h

Source: US20240139236A1, “COPPER HISTIDINATE COMPOSITIONS AND USES THEREOF” (Cyprium Therapeutics, Inc., priority 2021, published 2024)
